Results taken from the supplement of paper PMC10849652.
This is one part of the list. Residues, ends and D or L forms follow the SMILES beside them. *: point of attachment. Cbz = O=C(OCc1ccccc1)*

Amino acid sequences for entries named in this document (tags omitted). A change or cut given only in a name is not applied to a line headed by its entry.
UniProt Q9NTI5: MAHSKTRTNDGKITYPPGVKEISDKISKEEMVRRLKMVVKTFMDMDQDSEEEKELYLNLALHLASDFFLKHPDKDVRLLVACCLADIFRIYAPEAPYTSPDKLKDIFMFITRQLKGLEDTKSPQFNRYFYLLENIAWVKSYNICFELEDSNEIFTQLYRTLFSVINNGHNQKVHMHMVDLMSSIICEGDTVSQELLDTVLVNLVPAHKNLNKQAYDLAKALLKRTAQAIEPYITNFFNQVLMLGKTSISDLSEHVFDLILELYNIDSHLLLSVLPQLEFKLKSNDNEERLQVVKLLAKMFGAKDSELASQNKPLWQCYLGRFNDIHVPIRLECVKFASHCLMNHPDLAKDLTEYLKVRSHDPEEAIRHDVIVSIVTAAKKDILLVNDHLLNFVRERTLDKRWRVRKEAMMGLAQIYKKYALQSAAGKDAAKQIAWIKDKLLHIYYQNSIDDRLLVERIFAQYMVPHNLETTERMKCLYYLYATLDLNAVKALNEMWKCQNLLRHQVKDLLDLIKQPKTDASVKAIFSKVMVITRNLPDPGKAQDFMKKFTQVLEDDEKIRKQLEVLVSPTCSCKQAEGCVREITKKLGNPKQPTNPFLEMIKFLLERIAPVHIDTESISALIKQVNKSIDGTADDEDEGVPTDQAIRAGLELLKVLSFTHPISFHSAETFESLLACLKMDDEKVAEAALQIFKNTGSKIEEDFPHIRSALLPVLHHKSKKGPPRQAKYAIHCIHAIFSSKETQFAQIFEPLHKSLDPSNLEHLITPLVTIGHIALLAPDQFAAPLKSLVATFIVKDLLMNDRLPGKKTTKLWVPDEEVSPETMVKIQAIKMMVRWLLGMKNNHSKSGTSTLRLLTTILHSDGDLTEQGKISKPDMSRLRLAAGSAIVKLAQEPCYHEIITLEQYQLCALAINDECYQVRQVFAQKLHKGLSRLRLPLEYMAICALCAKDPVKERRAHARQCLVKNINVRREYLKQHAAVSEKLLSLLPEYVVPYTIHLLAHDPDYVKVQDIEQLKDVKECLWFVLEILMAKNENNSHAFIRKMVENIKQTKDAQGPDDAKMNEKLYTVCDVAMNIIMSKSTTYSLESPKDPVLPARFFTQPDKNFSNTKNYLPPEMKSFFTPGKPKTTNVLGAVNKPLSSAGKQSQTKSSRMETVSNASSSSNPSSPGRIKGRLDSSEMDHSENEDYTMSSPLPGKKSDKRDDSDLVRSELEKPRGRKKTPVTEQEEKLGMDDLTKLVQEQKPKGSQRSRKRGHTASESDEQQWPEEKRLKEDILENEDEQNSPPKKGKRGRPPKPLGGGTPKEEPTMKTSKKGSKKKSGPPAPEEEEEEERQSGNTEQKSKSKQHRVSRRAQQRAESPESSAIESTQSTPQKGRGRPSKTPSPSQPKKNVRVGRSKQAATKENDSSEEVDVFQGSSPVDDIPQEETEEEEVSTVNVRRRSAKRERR
UniProt O94913, whole entry, looked up: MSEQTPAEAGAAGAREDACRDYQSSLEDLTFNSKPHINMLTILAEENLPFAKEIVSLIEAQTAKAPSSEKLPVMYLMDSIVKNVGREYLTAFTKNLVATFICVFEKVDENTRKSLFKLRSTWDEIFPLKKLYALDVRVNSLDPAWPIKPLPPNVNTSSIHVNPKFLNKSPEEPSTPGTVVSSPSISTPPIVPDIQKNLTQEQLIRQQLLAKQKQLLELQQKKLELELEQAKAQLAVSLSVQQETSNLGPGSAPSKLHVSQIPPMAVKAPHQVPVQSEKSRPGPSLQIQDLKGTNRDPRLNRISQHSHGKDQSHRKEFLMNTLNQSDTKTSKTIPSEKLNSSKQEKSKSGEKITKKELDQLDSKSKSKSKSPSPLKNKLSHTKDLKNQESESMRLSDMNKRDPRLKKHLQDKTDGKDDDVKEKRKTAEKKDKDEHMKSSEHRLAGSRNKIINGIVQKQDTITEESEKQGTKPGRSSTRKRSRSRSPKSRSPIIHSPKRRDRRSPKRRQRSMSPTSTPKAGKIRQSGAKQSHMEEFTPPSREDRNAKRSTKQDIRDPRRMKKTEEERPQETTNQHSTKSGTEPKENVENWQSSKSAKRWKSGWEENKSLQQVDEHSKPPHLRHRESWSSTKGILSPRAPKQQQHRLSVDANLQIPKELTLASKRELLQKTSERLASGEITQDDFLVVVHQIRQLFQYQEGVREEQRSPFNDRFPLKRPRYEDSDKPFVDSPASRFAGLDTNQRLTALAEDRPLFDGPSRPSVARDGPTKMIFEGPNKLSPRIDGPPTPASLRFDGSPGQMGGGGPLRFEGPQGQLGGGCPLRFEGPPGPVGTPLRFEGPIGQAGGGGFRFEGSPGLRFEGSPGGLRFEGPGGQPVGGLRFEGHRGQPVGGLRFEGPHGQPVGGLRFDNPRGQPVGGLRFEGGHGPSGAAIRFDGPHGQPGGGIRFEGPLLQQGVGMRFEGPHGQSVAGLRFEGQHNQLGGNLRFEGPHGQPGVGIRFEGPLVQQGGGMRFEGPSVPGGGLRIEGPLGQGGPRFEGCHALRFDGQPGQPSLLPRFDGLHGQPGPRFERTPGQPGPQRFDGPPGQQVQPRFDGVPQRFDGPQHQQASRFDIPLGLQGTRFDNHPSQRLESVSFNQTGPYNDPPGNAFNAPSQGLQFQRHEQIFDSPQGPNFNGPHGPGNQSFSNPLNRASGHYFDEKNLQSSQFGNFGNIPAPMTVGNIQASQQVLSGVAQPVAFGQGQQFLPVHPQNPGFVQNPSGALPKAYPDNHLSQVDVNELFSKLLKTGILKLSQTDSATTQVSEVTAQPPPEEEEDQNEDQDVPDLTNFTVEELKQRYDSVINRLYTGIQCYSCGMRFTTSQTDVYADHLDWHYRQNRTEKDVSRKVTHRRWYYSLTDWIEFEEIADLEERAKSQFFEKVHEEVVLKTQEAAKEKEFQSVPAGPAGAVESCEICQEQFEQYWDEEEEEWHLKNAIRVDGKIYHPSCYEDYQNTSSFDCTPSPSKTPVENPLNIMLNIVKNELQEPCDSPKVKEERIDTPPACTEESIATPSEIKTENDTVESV
UniProt Q5JVF3: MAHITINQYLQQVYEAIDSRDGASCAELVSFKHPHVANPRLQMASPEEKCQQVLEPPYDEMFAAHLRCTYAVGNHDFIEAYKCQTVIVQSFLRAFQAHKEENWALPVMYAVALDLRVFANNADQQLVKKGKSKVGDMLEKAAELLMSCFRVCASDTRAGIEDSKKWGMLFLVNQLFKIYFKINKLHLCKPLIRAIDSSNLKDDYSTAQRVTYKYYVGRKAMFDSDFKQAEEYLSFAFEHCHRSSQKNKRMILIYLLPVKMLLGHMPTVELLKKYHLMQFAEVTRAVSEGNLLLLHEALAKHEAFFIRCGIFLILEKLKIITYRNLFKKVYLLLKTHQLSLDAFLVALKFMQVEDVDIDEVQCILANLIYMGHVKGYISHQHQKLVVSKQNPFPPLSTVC
UniProt Q6VY07, whole entry, looked up: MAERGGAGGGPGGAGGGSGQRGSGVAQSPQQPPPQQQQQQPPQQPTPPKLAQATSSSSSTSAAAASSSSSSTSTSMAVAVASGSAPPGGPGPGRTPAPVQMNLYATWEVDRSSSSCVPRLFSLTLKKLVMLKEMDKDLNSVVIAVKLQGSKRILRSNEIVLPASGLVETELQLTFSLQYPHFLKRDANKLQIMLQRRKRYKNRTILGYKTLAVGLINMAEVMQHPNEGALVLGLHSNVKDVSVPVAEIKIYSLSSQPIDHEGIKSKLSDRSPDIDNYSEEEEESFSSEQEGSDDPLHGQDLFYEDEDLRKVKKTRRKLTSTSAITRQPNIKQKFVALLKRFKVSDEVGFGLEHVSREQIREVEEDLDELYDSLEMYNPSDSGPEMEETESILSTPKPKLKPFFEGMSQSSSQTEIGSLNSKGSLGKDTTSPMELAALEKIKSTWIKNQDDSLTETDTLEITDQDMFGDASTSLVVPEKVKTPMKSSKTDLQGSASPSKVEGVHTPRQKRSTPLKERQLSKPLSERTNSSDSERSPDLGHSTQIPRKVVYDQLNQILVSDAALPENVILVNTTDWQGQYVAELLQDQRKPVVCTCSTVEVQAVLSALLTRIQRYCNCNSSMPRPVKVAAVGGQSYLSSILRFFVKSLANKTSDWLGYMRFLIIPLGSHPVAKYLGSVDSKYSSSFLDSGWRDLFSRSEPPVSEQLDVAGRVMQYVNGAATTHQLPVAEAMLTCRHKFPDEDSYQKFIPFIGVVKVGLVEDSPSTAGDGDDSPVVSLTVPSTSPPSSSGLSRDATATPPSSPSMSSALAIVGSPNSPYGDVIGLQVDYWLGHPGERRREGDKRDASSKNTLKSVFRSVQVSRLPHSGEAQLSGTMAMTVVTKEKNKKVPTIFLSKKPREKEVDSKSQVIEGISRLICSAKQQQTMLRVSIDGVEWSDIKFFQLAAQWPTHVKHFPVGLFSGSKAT
UniProt Q5EBL8: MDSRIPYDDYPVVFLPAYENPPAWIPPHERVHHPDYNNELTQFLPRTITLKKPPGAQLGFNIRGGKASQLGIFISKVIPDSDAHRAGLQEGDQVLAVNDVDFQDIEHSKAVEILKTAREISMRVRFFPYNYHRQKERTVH
UniProt Q9NR12, whole entry, looked up: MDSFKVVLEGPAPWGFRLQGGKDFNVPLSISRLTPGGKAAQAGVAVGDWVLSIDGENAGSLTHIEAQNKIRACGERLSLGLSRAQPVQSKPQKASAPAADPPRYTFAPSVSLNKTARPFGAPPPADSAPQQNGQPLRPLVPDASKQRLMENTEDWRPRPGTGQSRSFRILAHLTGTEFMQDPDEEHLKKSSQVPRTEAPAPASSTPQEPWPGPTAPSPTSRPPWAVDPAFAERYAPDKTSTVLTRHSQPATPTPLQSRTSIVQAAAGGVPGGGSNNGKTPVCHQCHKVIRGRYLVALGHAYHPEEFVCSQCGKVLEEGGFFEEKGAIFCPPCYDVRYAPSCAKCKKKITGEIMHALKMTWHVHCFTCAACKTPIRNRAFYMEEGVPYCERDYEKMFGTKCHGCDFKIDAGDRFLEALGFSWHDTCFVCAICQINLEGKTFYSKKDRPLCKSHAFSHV
UniProt P40425: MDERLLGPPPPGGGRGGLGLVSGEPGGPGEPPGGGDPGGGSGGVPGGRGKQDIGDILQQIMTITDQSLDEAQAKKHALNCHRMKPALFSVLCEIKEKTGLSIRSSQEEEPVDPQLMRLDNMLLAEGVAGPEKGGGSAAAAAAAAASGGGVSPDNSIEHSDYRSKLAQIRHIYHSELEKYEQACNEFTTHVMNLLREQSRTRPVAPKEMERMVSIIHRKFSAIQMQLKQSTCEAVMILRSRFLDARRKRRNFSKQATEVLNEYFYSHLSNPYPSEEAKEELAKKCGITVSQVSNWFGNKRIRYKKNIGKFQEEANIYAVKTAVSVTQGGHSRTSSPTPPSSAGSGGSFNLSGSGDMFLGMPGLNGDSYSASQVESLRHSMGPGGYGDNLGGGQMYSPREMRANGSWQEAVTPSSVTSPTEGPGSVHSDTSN
UniProt Q86TB9: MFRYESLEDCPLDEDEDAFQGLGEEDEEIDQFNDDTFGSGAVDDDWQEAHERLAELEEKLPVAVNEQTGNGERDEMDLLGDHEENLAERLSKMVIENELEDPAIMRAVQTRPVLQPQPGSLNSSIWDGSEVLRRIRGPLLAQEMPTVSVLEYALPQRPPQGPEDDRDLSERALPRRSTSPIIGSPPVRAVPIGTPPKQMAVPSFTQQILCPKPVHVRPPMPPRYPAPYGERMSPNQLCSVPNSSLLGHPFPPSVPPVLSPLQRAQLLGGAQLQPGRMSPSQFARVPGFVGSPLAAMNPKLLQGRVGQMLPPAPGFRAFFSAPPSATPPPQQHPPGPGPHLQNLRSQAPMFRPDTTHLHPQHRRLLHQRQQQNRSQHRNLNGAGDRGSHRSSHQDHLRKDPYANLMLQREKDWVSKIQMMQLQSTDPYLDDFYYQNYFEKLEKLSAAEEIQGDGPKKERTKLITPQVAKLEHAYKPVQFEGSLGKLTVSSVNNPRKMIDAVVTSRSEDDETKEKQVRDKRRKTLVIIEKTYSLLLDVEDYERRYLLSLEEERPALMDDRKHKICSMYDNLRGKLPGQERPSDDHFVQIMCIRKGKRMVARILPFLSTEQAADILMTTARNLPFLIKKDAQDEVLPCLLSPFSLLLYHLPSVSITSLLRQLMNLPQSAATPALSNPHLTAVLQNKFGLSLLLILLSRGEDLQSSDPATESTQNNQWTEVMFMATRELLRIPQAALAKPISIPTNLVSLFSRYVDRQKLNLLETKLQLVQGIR
UniProt Q15121, whole entry, looked up: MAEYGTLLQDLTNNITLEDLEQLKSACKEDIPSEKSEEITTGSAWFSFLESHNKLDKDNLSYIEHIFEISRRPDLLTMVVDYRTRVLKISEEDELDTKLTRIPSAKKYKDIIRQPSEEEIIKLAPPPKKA

How the values were obtained:
Assay in all cases: log2 fold change, soluble protein after heating vs DMSO (PISA); higher = thermal stabilisation; K562 cells, 10 uM, 30 min; active = over 0.2 and 3.5 SD of the protein, either way, in both replicates (recomputed)
IRAK-1-4 Inhibitor I = compound: C1COCCN1CCN2C3=CC=CC=C3N=C2NC(=O)C4=CC(=CC=C4)[N+](=O)[O-] [IRAK-1-4 Inhibitor I]
Procedure, shortened: (§1)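 K562 cells at 2×10^6 cells/mL were exposed to 10 μM compound for 30 min, then aliquots were heated for 3 min across 48°C-58°C, pooled, and extracted in PBS containing 0.5% NP-40 at 4°C. The supernatant after 21,000xg for 90 min was taken as soluble protein and measured by TMTpro 16plex LC-MS/MS with channel sums equalised. Thermal stability is reported relative to control samples, with values from duplicates. Fold changes are given on a log2 scale.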

ibrutinib = compound: C=CC(=O)N1CCC[C@@H](n2nc(-c3ccc(Oc4ccccc4)cc3)c3c(N)ncnc32)C1 [ibrutinib]
Procedure, shortened: as §1

[1] = compound: CC(=O)c1cnc2ccc(-c3cc(Cl)c(O)c(Cl)c3)nc2c1N[C@H]1CC[C@H](CN(C)C)CC1
Procedure, shortened: as §1

ralimetinib = compound: CC(C)(C)Cn1c(N)nc2ccc(-c3[nH]c(C(C)(C)C)nc3-c3ccc(F)cc3)nc21 [ralimetinib]
Procedure, shortened: as §1

[2] = compound: CC(C)(O)CC(=O)NCCn1ccc2ncnc(Nc3ccc(Oc4cccc(C(F)(F)F)c4)c(Cl)c3)c21
Procedure, shortened: as §1

[3] = compound: CC(C)C1=C2N=C(C=C(N2N=C1)NCC3=CC=CC=C3)NCCCCCCN
Procedure, shortened: as §1

[4] = compound: CC(C)C[C@@H](C=O)NC(=O)[C@H](CC(C)C)NC(=O)[C@H](CC(C)C)NC(=O)OCc1ccccc1
Procedure, shortened: as §1

pinometostat = compound: CC(C)N(C[C@H]1O[C@@H](n2cnc3c(N)ncnc32)[C@H](O)[C@@H]1O)[C@H]1C[C@@H](CCc2nc3cc(C(C)(C)C)ccc3[nH]2)C1 [pinometostat]
Procedure, shortened: as §1

[5] = compound: CC1=C(C2=C(C=C1)C(=O)C3=CC=CC=C3N2CCCN)C
Procedure, shortened: as §1

[6] = compound: CC1=C(C=C(C=C1)NC(=O)C2=CC(=CC=C2)C(C)(C)C#N)NC3=CC4=C(C=C3)N=CN(C4=O)C
Procedure, shortened: as §1

[7] = compound: CC1=C(C=C(C=C1)NC(=O)C2=CC(=CC=C2)N(C)C)NC(=O)C3=CC=C(C=C3)O
Procedure, shortened: as §1

[8] = compound: CC1=CC=C(C=C1)SC2=C3C=C(SC3=CN=C2)C(=O)N
Procedure, shortened: as §1

[9] = compound: CC1=NC(=CC=C1)C2=C(N=C(N2)C(C)(C)C)C3=CC4=NC=CN=C4C=C3
Procedure, shortened: as §1

Nexturastat A = compound: CCCCN(Cc1ccc(C(=O)NO)cc1)C(=O)Nc1ccccc1 [Nexturastat A]
Procedure, shortened: as §1

vemurafenib = compound: CCCS(=O)(=O)Nc1ccc(F)c(C(=O)c2c[nH]c3ncc(-c4ccc(Cl)cc4)cc23)c1F [vemurafenib]
Procedure, shortened: as §1

[10] = compound: CCCS(=O)(=O)Nc1ccc(F)c(C(=O)c2c[nH]c3ncc(Cl)cc23)c1F
Procedure, shortened: as §1

[11] = compound: CCCc1cc(C)[nH]c(=O)c1CNC(=O)c1cc(-c2ccnc(N3CCN(C)CC3)c2)cc2c1cnn2C(C)C
Procedure, shortened: as §1

givinostat = compound: CCN(CC)Cc1ccc2cc(COC(=O)Nc3ccc(C(=O)NO)cc3)ccc2c1 [givinostat]
Procedure, shortened: as §1

barasertib = compound: CCN(CCCOc1ccc2c(Nc3cc(CC(=O)Nc4cccc(F)c4)[nH]n3)ncnc2c1)CCOP(=O)(O)O [barasertib]
Procedure, shortened: as §1

[12] = compound: CC1=C(C(CC(=O)N1)C2=CC=C(C=C2)C(F)(F)F)C(=O)NC3=C(C=C4C(=C3)C=NN4)F
Procedure, shortened: as §1

Measured: log2 fold change

PCGF2 (UniProt P35227)
inactive: IRAK-1-4 Inhibitor I -0.077 | ibrutinib -0.101 | [1] -0.164 | ralimetinib -0.036 | [2] 0 | [3] -0.095 | [4] 0.065 | pinometostat -0.075 | [5] 0.107 | [6] -0.043 | [7] -0.058 | [8] -0.056 | [9] 0.033 | Nexturastat A -0.01 | vemurafenib 0 | [10] -0.033 | [11] 0.056 | givinostat 0.046 | barasertib 0.113

PDS5B (UniProt Q9NTI5)
inactive: IRAK-1-4 Inhibitor I -0.184 | ibrutinib -0.102 | [1] -0.052 | ralimetinib -0.01 | [2] -0.093 | [3] -0.166 | [4] 0.124 | pinometostat 0.093 | [5] 0.02 | [6] -0.088 | [7] 0.086 | [8] 0.176 | [9] 0.109 | Nexturastat A -0.011 | vemurafenib -0.032 | [10] 0.32 | [11] -0.058 | givinostat 0.135 | barasertib 0.047

PELO (UniProt Q9BRX2)
inactive: IRAK-1-4 Inhibitor I -0.073 | ibrutinib 0.071 | [1] -0.106 | ralimetinib 0.122 | [2] -0.128 | [4] 0.058 | pinometostat 0.201 | [5] 0.088 | [6] -0.005 | [7] -0.051 | [8] 0.042 | [9] -0.039 | Nexturastat A 0.161 | vemurafenib -0.13 | [10] 0.007 | [11] 0.055 | givinostat 0.192 | barasertib 0.045
active: [3] -0.361

PCF11 (UniProt O94913)
inactive: IRAK-1-4 Inhibitor I 0.002 | ibrutinib -0.255 | [1] -0.093 | ralimetinib -0.104 | [4] -0.083 | pinometostat -0.058 | [7] 0.045 | [8] 0.019 | [9] -0.018 | vemurafenib -0.058 | [10] 0.006 | [11] -0.3 | barasertib -0.168

PCBP2 (UniProt F8VRH0)
inactive: IRAK-1-4 Inhibitor I 0.118 | ibrutinib 0.057 | [1] -0.092 | [2] -0.263 | [3] 0.123 | pinometostat 0.022 | [5] -0.113 | [6] 0.419 | [8] 0.019 | [9] 0.172 | Nexturastat A 0.136 | vemurafenib -0.235 | [10] 0.123 | [11] -0.199 | givinostat 0.04 | barasertib -0.201

PCID2 (UniProt Q5JVF3)
active: [3] -0.428
inactive: IRAK-1-4 Inhibitor I -0.008 | ibrutinib -0.015 | ralimetinib 0.007 | [2] 0.063 | [4] -0.02 | pinometostat 0.037 | [5] 0.06 | [6] 0.024 | [7] -0.026 | [8] -0.066 | [9] 0.033 | Nexturastat A 0.153 | vemurafenib 0.069 | [10] 0.202 | [11] 0.071 | givinostat 0.114 | barasertib -0.016

PECAM1 (UniProt P16284)
active: [5] 0.261
inactive: IRAK-1-4 Inhibitor I 0.021 | ibrutinib 0.004 | [1] -0.031 | ralimetinib -0.002 | [2] -0.082 | [3] 0.141 | [4] -0.057 | pinometostat 0.012 | [6] -0.092 | [7] -0.019 | [8] -0.013 | [9] -0.113 | Nexturastat A 0.068 | vemurafenib -0.049 | [10] 0.004 | [11] -0.015 | givinostat 0.01 | barasertib 0.028

PDE12 (UniProt Q6L8Q7)
inactive: IRAK-1-4 Inhibitor I 0.118 | ibrutinib 0.015 | [1] 0.085 | ralimetinib -0.036 | [2] -0.006 | [3] -0.032 | [4] 0.03 | pinometostat -0.031 | [5] 0.033 | [6] 0.049 | [7] 0.006 | [8] 0.024 | [9] 0.026 | Nexturastat A -0.064 | vemurafenib -0.006 | [10] 0.03 | [11] -0.01 | givinostat -0.027 | barasertib 0.014

PACS1 (UniProt Q6VY07)
inactive: IRAK-1-4 Inhibitor I -0.002 | ibrutinib -0.016 | ralimetinib -0.024 | [2] -0.014 | [3] -0.011 | [4] 0 | pinometostat -0.029 | [5] -0.007 | [6] -0.001 | [7] -0.031 | [8] -0.021 | [9] 0.087 | Nexturastat A 0.023 | vemurafenib 0.021 | [10] 0.023 | [11] 0.092 | givinostat 0.004 | barasertib 0.039
active: [1] -0.297

PDZD11 isoform 2 (UniProt Q5EBL8)
inactive: IRAK-1-4 Inhibitor I -0.042 | ibrutinib 0.046 | ralimetinib 0.014 | [2] -0.071 | [3] 0.007 | [4] 0.053 | pinometostat -0.025 | [12] -0.082 | [5] 0.029 | [6] -0.032 | [7] -0.047 | [8] 0.013 | [9] 0.042 | Nexturastat A 0.051 | vemurafenib -0.044 | [10] 0.029 | [11] 0.07 | givinostat -0.032 | barasertib 0.081

PAFAH2 (UniProt Q99487)
inactive: IRAK-1-4 Inhibitor I 0.106 | ibrutinib 0.048 | [1] -0.012 | ralimetinib -0.033 | [3] 0.025 | [4] 0.007 | pinometostat -0.011 | [5] 0.02 | [6] -0.09 | [7] 0.006 | [8] 0.019 | [9] -0.038 | vemurafenib 0.093 | [10] -0.015 | givinostat 0.059 | barasertib -0.044

PDLIM7 (UniProt Q9NR12)
inactive: IRAK-1-4 Inhibitor I 0.017 | ibrutinib 0.005 | [1] -0.054 | ralimetinib 0.08 | [2] -0.035 | [3] 0.024 | [4] -0.045 | pinometostat -0.019 | [5] 0.065 | [6] 0.02 | [7] -0.029 | [8] -0.002 | [9] 0.046 | Nexturastat A -0.016 | vemurafenib 0.026 | [10] 0.032 | [11] 0.001 | givinostat 0.05 | barasertib 0.032

PBX2 (UniProt P40425)
inactive: IRAK-1-4 Inhibitor I -0.078 | ibrutinib 0.023 | [1] -0.122 | ralimetinib 0.04 | [2] -0.145 | [3] -0.184 | [4] 0.078 | pinometostat -0.058 | [5] -0.005 | [6] 0.049 | [7] 0.001 | [8] 0.089 | [9] 0.165 | Nexturastat A 0.072 | vemurafenib 0.099 | [10] 0.136 | [11] 0.026 | givinostat 0.138 | barasertib 0.03

PATL1 (UniProt Q86TB9)
inactive: IRAK-1-4 Inhibitor I -0.026 | ibrutinib -0.173 | [1] -0.312 | ralimetinib 0.079 | [2] -0.024 | [3] -0.298 | [4] 0.033 | pinometostat 0.143 | [5] 0.038 | [6] 0.038 | [7] 0.031 | [8] -0.025 | [9] -0.064 | Nexturastat A 0.123 | vemurafenib -0.118 | [10] 0.005 | [11] 0.1 | givinostat 0.039 | barasertib 0.014

PARP16 isoform 3 (UniProt Q8N5Y8)
active: [8] 0.298
inactive: IRAK-1-4 Inhibitor I -0.036 | ibrutinib -0.13 | [1] -0.003 | [2] 0.032 | [3] -0.012 | pinometostat -0.097 | [5] -0.027 | [6] 0.066 | [9] 0 | Nexturastat A 0.022 | vemurafenib -0.06 | [10] 0.132 | [11] -0.016 | givinostat 0.04 | barasertib 0.032

PEA15 isoform 2 (UniProt Q15121)
inactive: IRAK-1-4 Inhibitor I 0.025 | ibrutinib -0.024 | [1] 0.054 | ralimetinib 0.007 | [2] -0.079 | [3] -0.045 | [4] -0.046 | pinometostat -0.004 | [5] 0.038 | [6] 0.004 | [7] -0.039 | [8] 0.042 | [9] -0.008 | Nexturastat A -0.071 | vemurafenib 0.002 | [10] 0.122 | [11] -0.003 | givinostat 0.003 | barasertib 0.082
